The list shows only some results of the screen, not a fair sample: it gathers tests that were run many times, whatever their T/C, doses with no T/C, and many T/C values between a quarter and a half above the control. Further doses and runs are listed elsewhere. T/C gives the treated animals as a percentage of the vehicle group. Some doses have a count of surviving animals in place of a T/C: the source files T/C as zero there, which appears to mark a toxic dose or a test without result, not a measured value. Some doses without a T/C left all or most animals alive at the check, yet need not have been tolerated: the source hardly ever lists a survival T/C far under the control, and the zero likely stands for such cases as well. Survivors were counted at the toxicity check, usually on the fifth day, unless a day is given; later deaths do not show. Schedule codes are those of the source, taken here to give the interval after Q, in days (D) or hours (H), and the number of doses after X. Counts like (3×) count equal records among those shown. Some entries were tested several times; the results are listed from low to high. Where survival is the endpoint, this PubChem deposit counts one and a half times the control or more as active, and values a quarter to a half above the control carry no call in these data; other NCI protocols may use other cut-offs.
Test system: P388 leukemia ip, CD2F1 mice, survival T/C
Experiment: NCI In Vivo Anticancer Drug Screen. Data for tumor model P388 Leukemia (intraperitoneal) in CD2F1 (CDF1) mice
Details: T/C endpoint: median survival time, higher T/C = longer survival
[1] = dose: 50.0 mg/kg/injection, schedule: Q01DX009 (ip), vehicle: Klucel (hydroxypropylcellulose) (HPC)
[2] = dose: 400.0 mg/kg/injection, schedule: Q04DX003 (ip), vehicle: saline with Tween-80
[3] = dose: 100.0 mg/kg/injection, schedule: Q01DX005 (ip), vehicle: saline with Tween-80
[4] = dose: 200.0 mg/kg/injection, schedule: Q01DX005 (ip), vehicle: saline with Tween-80
[5] = dose: 100.0 mg/kg/injection, schedule: Q01DX009 (ip), vehicle: Klucel (hydroxypropylcellulose) (HPC)
[6] = dose: 200.0 mg/kg/injection, schedule: Q01DX009 (ip), vehicle: Klucel (hydroxypropylcellulose) (HPC)
[7] = dose: 120.0 mg/kg/injection, schedule: Q01DX005 (ip), vehicle: saline with Tween-80
[8] = dose: 240.0 mg/kg/injection, schedule: Q01DX005 (ip), vehicle: saline with Tween-80
[9] = dose: 200.0 mg/kg/injection, schedule: Q04DX003 (ip), vehicle: Klucel (hydroxypropylcellulose) (HPC)
[10] = dose: 12.5 mg/kg/injection, schedule: Q04DX003 (ip), vehicle: saline
[11] = dose: 25.0 mg/kg/injection, schedule: Q04DX003 (ip), vehicle: saline

**Q.** With `CNC(=O)OCc1c(COC(=O)NC)c(C)n(-c2ccc(C)cc2)c1C` as the molecule, how does the T/C (dose: 12.5 mg/kg/injection, schedule: Q01DX009 (ip), vehicle: Klucel (hydroxypropylcellulose) (HPC)) read?
**A.** 127 and 142 % of control

**Q.** What about the T/C (dose: 25.0 mg/kg/injection, schedule: Q01DX009 (ip), vehicle: Klucel (hydroxypropylcellulose) (HPC)) of the same molecule?
**A.** 130 and 136 % of control

**Q.** And the T/C [1]?
**A.** 133 and 143 % of control

**Q.** For `CCCCCCN(CCCCCC)P(=O)(N1CC1)N1CC1`, which T/C (dose: 25.0 mg/kg/injection, schedule: Q01DX009 (ip), vehicle: saline) is on record?
**A.** 131 % of control

**Q.** What about the survivor count (dose: 50.0 mg/kg/injection, schedule: Q01DX009 (ip), vehicle: saline) of the same molecule?
**A.** 2 of 6

**Q.** And the T/C (dose: 50.0 mg/kg/injection, schedule: Q04DX003 (ip), vehicle: saline with Tween-80)?
**A.** 127 % of control

**Q.** And the survivor count (dose: 100.0 mg/kg/injection, schedule: Q04DX003 (ip), vehicle: saline with Tween-80)?
**A.** 5 of 6

**Q.** What about the survivor count (dose: 200.0 mg/kg/injection, schedule: Q04DX003 (ip), vehicle: saline with Tween-80) of the same molecule?
**A.** 1 of 6

**Q.** And the survivor count [2]?
**A.** 0 of 6

**Q.** For `COc1ccc(Cc2c3ccccc3cc[n+]2Cc2ccccc2)cc1OC`, which survivor count [3] is on record?
**A.** 0 of 6

**Q.** What about the survivor count [4] of the same molecule?
**A.** 0 of 6

**Q.** `C=CCCCCCCCCCSC(=N)N` was tested. Which survivor count [1] did it give?
**A.** 1 of 6

**Q.** And the survivor count [5]?
**A.** 0 of 6

**Q.** And the survivor count [6]?
**A.** 0 of 6

**Q.** For `NC(=O)c1nn[nH]n1`, which survivor count [6] is on record?
**A.** 6 of 6

**Q.** For `Clc1ccc(CCNCc2ccc(Cl)cc2)cc1`, which survivor count [3] is on record?
**A.** 5 of 6

**Q.** And the survivor count [4]?
**A.** 0 of 6

**Q.** For `Brc1ccc(N=C2N=C(Nc3ccc(Br)cn3)c3ccccc32)nc1`, which survivor count (dose: 100.0 mg/kg/injection, schedule: Q04DX002 (ip), vehicle: saline with Tween-80) is on record?
**A.** 6 of 6

**Q.** How did the survivor count [7] turn out when `O=C(NCCNC(=O)c1cc(Cl)cc(Cl)c1O)c1cc(Cl)cc(Cl)c1O` was run?
**A.** 6 of 6

**Q.** And the survivor count [8]?
**A.** 6 of 6

**Q.** For `C=C(C#N)COc1ccc(Cl)cc1C`, which survivor count [5] is on record?
**A.** 0 of 6

**Q.** And the survivor count [6]?
**A.** 0 of 6

**Q.** For `CNC(=O)Nc1ccn(C(=O)NC)c(=O)n1`, which survivor count (dose: 400.0 mg/kg/injection, schedule: Q04DX002 (ip), vehicle: Klucel (hydroxypropylcellulose) (HPC)) is on record?
**A.** 2 of 6

**Q.** How did the survivor count [2] turn out when `Clc1ccc(CNc2ncnc3[nH]ncc23)c(Cl)c1` was run?
**A.** 6 of 6

**Q.** With `COC(=O)C(O)(C(=O)OC)C1=C(N)C(=O)c2ccccc2C1=O` as the molecule, how does the survivor count (dose: 200.0 mg/kg/injection, schedule: Q01DX005 (ip), vehicle: saline) read?
**A.** 0 of 6

**Q.** Which results are given for `COc1cc2c(=O)oc3c(OC)c(O)cc4c(=O)oc(c1OC)c2c34`?
**A.** T/C (dose: 16.0 mg/kg/injection, schedule: Q01DX005 (ip), vehicle: saline with Tween-80): 144 % of control; survivor count (dose: 32.0 mg/kg/injection, schedule: Q01DX005 (ip), vehicle: saline with Tween-80): 6 of 6

**Q.** For `CS(=O)(=O)ON1C(=O)c2ccccc2C1=O`, which survivor count [9] is on record?
**A.** 1 of 6

**Q.** For `CC(C)CC(=O)CC(=O)C(C)(C)C.CC(C)CC(=O)CC(=O)C(C)(C)C.[Cu]`, which survivor count [9] is on record?
**A.** 6 of 6

**Q.** And the survivor count (dose: 400.0 mg/kg/injection, schedule: Q04DX003 (ip), vehicle: Klucel (hydroxypropylcellulose) (HPC))?
**A.** 0 of 6

**Q.** How did the survivor count [10] turn out when `CCOC(=O)[C](=[N+]=[N-])[Hg][C](=[N+]=[N-])C(=O)OCC` was run?
**A.** 0 of 6

**Q.** What about the survivor count [11] of the same molecule?
**A.** 0 of 6

**Q.** What about the survivor count (dose: 50.0 mg/kg/injection, schedule: Q04DX003 (ip), vehicle: saline) of the same molecule?
**A.** 0 of 6

**Q.** `O=C(Cc1ccc([N+](=O)[O-])cc1)ON1C(=O)CCC1=O` was tested. Which survivor count [8] did it give?
**A.** 5 of 6

**Q.** Which results are given for `CCOc1c2c(nn(C)c1=O)Oc1ccccc1N2CCCN1CCOCC1`?
**A.** survivor count [7]: 0 of 6; survivor count [8]: 0 of 6

**Q.** For `CC(c1c[nH]c2ccccc12)N1CCCCC1` (centres undefined), which survivor count [5] is on record?
**A.** 0 of 6

**Q.** With `CCOC(=O)/C(C(=N)c1nc(C)c(C(=O)OCC)c(C(N)=O)n1)=C(/C)O` as the molecule, how does the survivor count (dose: 50.0 mg/kg/injection, schedule: Q01DX005 (ip), vehicle: Klucel (hydroxypropylcellulose) (HPC)) read?
**A.** 5 of 6

**Q.** For `CC1=NC(=O)C(N=O)C(=O)N1` (centres undefined), which survivor count (dose: 400.0 mg/kg/injection, schedule: Q04DX002 (ip), vehicle: saline with Tween-80) is on record?
**A.** 0 of 6

**Q.** Which survivor count (dose: 100.0 mg/kg/injection, schedule: Q01DX009 (ip), vehicle: saline with Tween-80) does the source give for `O=C(O)/C=C\C(=O)OCc1ccc(Cl)cc1Cl` here?
**A.** 4 of 6

**Q.** For `CN=C(C)NC1CCCCC1`, which survivor count (dose: 200.0 mg/kg/injection, schedule: Q01DX009 (ip), vehicle: saline) is on record?
**A.** 3 of 6

**Q.** How did the survivor count (dose: 200.0 mg/kg/injection, schedule: Q01DX005 (ip), vehicle: saline + Tween-80 + alcohol) turn out when `COc1ccc2c(c1)C[N+](C)(CCc1ccccc1)[B-]O2` (centres undefined) was run?
**A.** 1 of 6

**Q.** `Nc1ccc(N)c2c1C(=O)c1ccccc1C2=O` was tested. Which survivor count [6] did it give?
**A.** 6 of 6

**Q.** And the survivor count (dose: 400.0 mg/kg/injection, schedule: Q01DX009 (ip), vehicle: Klucel (hydroxypropylcellulose) (HPC))?
**A.** 6 of 6

**Q.** How did the survivor count [6] turn out when `Cc1ccnc(NC(=O)Nc2cc(Cl)ccc2Cl)c1` was run?
**A.** 6 of 6

**Q.** With `CC1[C@@]2(O[C@@H]3C=C4C5CCC6Cc7nc8c(nc7C[C@@]6(C)C5C[C@H](O)[C@@]4(C)[C@]13O)CC1CCc3c(cc4c5c3C(O)C[C@H]5[C@@H](C)C3(O4)OC(C)(C)CC3O)[C@]1(C)C8)O[C@@](C)(CO)C[C@@H]2O` (some centres undefined) as the molecule, how does the T/C (dose: 50.0 micrograms/kg/injection, schedule: Q01DX009 (ip), vehicle: saline + alcohol) read?
**A.** 125 % of control

**Q.** `[Cl][Pt+2][Cl].[NH-]C1CCC1.[NH2-]` was tested. Which T/C (dose: 0.38 mg/kg/injection, schedule: Q01DX005 (ip), vehicle: saline) did it give?
**A.** 125 % of control

**Q.** And the T/C (dose: 0.75 mg/kg/injection, schedule: Q01DX005 (ip), vehicle: saline)?
**A.** 143 % of control

**Q.** And the T/C (dose: 1.5 mg/kg/injection, schedule: Q01DX005 (ip), vehicle: saline)?
**A.** 148 % of control

**Q.** And the survivor count (dose: 12.0 mg/kg/injection, schedule: Q01DX005 (ip), vehicle: saline)?
**A.** 5 of 6 and 6 of 6

**Q.** What about the survivor count (dose: 24.0 mg/kg/injection, schedule: Q01DX005 (ip), vehicle: saline) of the same molecule?
**A.** 1 of 6 and 6 of 6

**Q.** `O=C(O)c1c(Cl)n(Cc2cc(Cl)ccc2Cl)c2ccccc12` was tested. Which survivor count (dose: 240.0 mg/kg/injection, schedule: Q01DX005 (ip), vehicle: Klucel (hydroxypropylcellulose) (HPC)) did it give?
**A.** 5 of 6

**Q.** Which results are given for `O=C[O-].[NH2-].[NH2-].[NH2-].[NH2-].[NH2-].[O-][Cl+3]([O-])([O-])O.[Ru+8]`?
**A.** T/C [10]: 128 % of control; T/C (dose: 12.5 mg/kg/injection, schedule: Q04DX003 (ip), vehicle: water): 126 % of control; survivor count [11]: 6 of 6; survivor count (dose: 25.0 mg/kg/injection, schedule: Q04DX003 (ip), vehicle: water): 5 of 6; survivor count (dose: 50.0 mg/kg/injection, schedule: Q04DX003 (ip), vehicle: water): 0 of 6; survivor count (dose: 100.0 mg/kg/injection, schedule: Q04DX003 (ip), vehicle: water): 0 of 6; survivor count (dose: 200.0 mg/kg/injection, schedule: Q04DX003 (ip), vehicle: water): 0 of 6

**Q.** How did the T/C (dose: 0.25 mg/kg/injection, schedule: Q01DX009 (ip), vehicle: water, evaluated on day 30) turn out when `CCCCOc1ccc(C(=O)N/N=C(\C)[C@]2(O)Cc3c(O)c4c(c(O)c3[C@@H](OC3CC(N)C(O)C(C)O3)C2)C(=O)c2c(OC)cccc2C4=O)cc1` (some centres undefined) was run?
**A.** 143 % of control

**Q.** And the T/C (dose: 0.25 mg/kg/injection, schedule: Q01DX009 (ip), vehicle: water, evaluated on day 45)?
**A.** 145 % of control

**Q.** And the T/C (dose: 2.5 mg/kg/injection, schedule: Q01DX001 (ip), vehicle: water)?
**A.** 135 % of control

**Q.** And the T/C (dose: 4.0 mg/kg/injection, schedule: Q01DX009 (ip), vehicle: water, evaluated on day 30)?
**A.** 127 % of control

**Q.** What about the T/C (dose: 4.0 mg/kg/injection, schedule: Q01DX009 (ip), vehicle: water, evaluated on day 45) of the same molecule?
**A.** 137 % of control

**Q.** And the survivor count (dose: 8.0 mg/kg/injection, schedule: Q01DX009 (ip), vehicle: water)?
**A.** 6 of 6 (2×)

**Q.** And the T/C (dose: 10.0 mg/kg/injection, schedule: Q01DX001 (ip), vehicle: water)?
**A.** 135 % of control

**Q.** What about the survivor count (dose: 16.0 mg/kg/injection, schedule: Q01DX009 (ip), vehicle: water) of the same molecule?
**A.** 4 of 6

**Q.** What about the survivor count (dose: 40.0 mg/kg/injection, schedule: Q01DX001 (ip), vehicle: water) of the same molecule?
**A.** 5 of 6

**Q.** What about the survivor count (dose: 80.0 mg/kg/injection, schedule: Q01DX001 (ip), vehicle: water) of the same molecule?
**A.** 2 of 6

— PubChem BioAssay AID330 (DTP/NCI, 2004)
